Laboratory results reported in patent US11246857B2, “Anti-fungal inhibitors” (THE JOHNS HOPKINS UNIVERSITY, priority 2017, dated 2022).
The index is printed as in the source, without its formula.

System: human fibroblast
Assay: Toxicity against human fibroblast
Type: cell-based
Details: therapeutic index calculated from toxicity against human fibroblast and MIC
Excerpt: XlogP values are derived from PubChem and describe the lipophilicity of the molecule. The topological polar surface area (tPSA) is a metric for predicting cell penetration, with values <140 to be favorable. […] Toxicity against human fibroblast was used to calculate the therapeutic index TI.

## Nc1ccc(-c2nc3ccc(Cc4ccc5nc(C6CCC(N)CC6)[nH]c5c4)cc3[nH]2)cc1 (stereo not shown) [DM262]
  TI: 16.4
